# Results of single-concentration screens

Chains of the proteins cited; added tags and fusions are not shown.
UniProt P9WPC5, whole entry: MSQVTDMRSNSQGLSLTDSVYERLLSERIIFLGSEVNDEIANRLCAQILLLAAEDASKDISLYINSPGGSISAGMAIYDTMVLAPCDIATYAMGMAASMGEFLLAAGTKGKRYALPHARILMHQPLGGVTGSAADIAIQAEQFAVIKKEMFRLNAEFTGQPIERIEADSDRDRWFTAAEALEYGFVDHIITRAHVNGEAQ
UniProt P9WPC3, whole entry partner: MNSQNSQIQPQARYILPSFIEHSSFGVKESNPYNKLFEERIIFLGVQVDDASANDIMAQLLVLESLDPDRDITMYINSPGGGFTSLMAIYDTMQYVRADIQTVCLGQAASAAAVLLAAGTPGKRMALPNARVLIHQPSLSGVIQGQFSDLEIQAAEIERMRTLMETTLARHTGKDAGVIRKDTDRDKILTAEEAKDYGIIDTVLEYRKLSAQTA
UniProt P9WFT3, whole entry: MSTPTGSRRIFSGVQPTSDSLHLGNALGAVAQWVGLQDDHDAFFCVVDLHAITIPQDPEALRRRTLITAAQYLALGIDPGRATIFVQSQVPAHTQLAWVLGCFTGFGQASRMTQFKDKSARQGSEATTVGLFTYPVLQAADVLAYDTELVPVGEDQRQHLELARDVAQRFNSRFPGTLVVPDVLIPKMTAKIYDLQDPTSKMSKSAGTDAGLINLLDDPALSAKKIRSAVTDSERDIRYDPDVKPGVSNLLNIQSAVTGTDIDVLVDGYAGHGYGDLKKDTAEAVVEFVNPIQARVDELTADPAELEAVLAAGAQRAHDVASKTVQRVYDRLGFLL

Measurements from “University of Dundee, Small-Polar-MMV Screening Library” (2021), ChEMBL document CHEMBL3988442.

A: 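Protease assay of ClpP1P2, read by the AMC dye that it sets free. Target: ClpP1P2, Mycobacterium tuberculosis (UniProt P9WPC5 and UniProt P9WPC3). Tested at 50 µM. Direction is inferred from only a few compounds that gave an IC50; most scored high, so higher reads as stronger inhibition. Most other retested compounds had strongly negative values. Of about 69,000 compounds tested this way, about 10 (0.015%) reached 50% or more in at least one test.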
B: 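Tryptophan-tRNA ligase, Mycobacterium tuberculosis (UniProt P9WFT3). Enzyme assay of tryptophanyl-tRNA synthetase; the read-out is not stated. Concentration: 10 µM. Direction is not recorded; retested compounds ran higher, which suggests that high means inhibition. About 65,000 compounds were tested under these conditions; 0.098% (about 64) showed 50% or more at least once.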

Each number is a percent effect as filed.
The controls that fix the scale are not given in the record; negative values are as filed.
Compounds were drawn at random from those tested, without regard to their results.
A dash means the value is not listed here; it may have been measured.

| Compound | A | B |
|---|---|---|
| `Cc1cc(C(=O)N2CCC3(CC2)CC(c2cccnc2)C(=O)N3)no1` (centres unmarked) | -1.57% | 4.653% |
| `Cc1cnc(NCc2cnn(C)c2)nc1-c1cnn(C)c1` | -20.95% | -0.3132% |
| `CN(C)C(=O)N1CCN(CCn2nc3ccccn3c2=O)CC1` | -13.3% | -2.013% |
| `FC(F)(F)Sc1ccccc1NCc1nc(C2CC2)no1` | 2.458% | -0.7607% |
| `OCC1CCCN1c1cc(NCCc2ccsc2)ncn1` (centres unmarked) | -6.143% | -0.2719% |
| `N#Cc1ccc(N2CCC(OC3CCOCC3)CC2)cc1Cl` | -8.954% | 1.591% |
| `CCS(=O)(=O)c1ccc(N2CCC(NC(C)=O)CC2)cc1` | -2.052% | -4.618% |
| `COCCNC(=O)C1(CCCc2cccnc2)CCCN1C` (centres unmarked) | -7.965% | 4.722% |
| `Cn1cc(S(=O)(=O)N(CC(F)(F)F)C2CC2)cc1C(N)=O` | 8.159% | -6.524% |
| `O=C(O)c1ccccc1-c1ccc(CN2CC(c3ccncn3)C2)o1` | -10.88% | -2.676% |
| `CCCn1ncc(CN2C[C@@H]3CCCN3C[C@H]2CCSC)c1C` | -10.48% | - |
| `CCc1ncc2c(n1)CN(Cc1cccc3c1OCCO3)CC2` | 9.925% | 3.367% |
| `Cn1cnc(S(=O)(=O)NCC2CCN(C(=O)Oc3ccccc3)CC2)c1` | -11.19% | 1.498% |
| `O=C(NC1CCOCC1)c1cccc(C2CCCNC2)c1` (centres unmarked) | 8.02% | 1.071% |
| `COCc1nc(NCC2CCS(=O)(=O)C2)c2cnn(C)c2n1` (centres unmarked) | -5.165% | 7.873% |
| `Cc1nc(NC2CCCC2)cc(C2CCN2C(=O)c2cccnc2)n1` (centres unmarked) | 10.12% | 1.756% |
| `CC(CCCC(C)(C)O)Nc1ccc(-c2nccn2C)nn1` (centres unmarked) | -3.04% | -4.075% |
| `Cc1cnn(CC2CCCN2Cc2nnc(C3CC3)n2C)c1` (centres unmarked) | -15.58% | 0.2839% |
| `CC(NC(=O)CCc1cccs1)c1nnc2n1CCCCC2` (centres unmarked) | -1.382% | 10.6% |
| `OC1CCN(c2ccc(CNc3nc4ccccc4s3)cc2F)CC1` | 8.216% | -1.487% |
| `N#Cc1cccc(NS(=O)(=O)c2ccc(C(=O)O)cc2F)c1` | -6.507% | -7.903% |
| `Cc1cc(CN2C[C@@H]3COC[C@@H](C(=O)N4CCCCO4)[C@@H]3C2)oc1C` | 12.52% | -1.251% |
| `Cc1ccc(-c2csc(-c3cccc(C(=O)O)c3)n2)cc1` | 16.83% | -15.42% |
| `O=S(=O)(Cc1nc(C2CC2)no1)c1cc(F)ccc1F` | -12.08% | 1.232% |
| `Cc1nn(C)c(N2CCOCC2)c1CNC(C)c1cccs1` (centres unmarked) | -9.369% | -5.598% |
| `CN(Cc1nnc(C2CC2)n1C)C1CCN(Cc2ccccc2F)C1` (centres unmarked) | -4.864% | -0.7401% |
| `CN(C)C(=O)c1ccc2ccc(N3CCN(CC4CC4)CC3)n2c1` | -3.147% | 10.76% |
| `Cc1nc(S(=O)(=O)N2CCCCc3ccccc32)cn1C` | 1.925% | -1.34% |
| `COc1cc(CNCC(C)O)cc(Cl)c1OCc1ccc(C)cc1` (centres unmarked) | -11.35% | -2.576% |
| `CN1CC2(CCN(C(=O)COc3ccc(Cl)cc3Cl)CC2)OC1=O` | -2.098% | 8.174% |
| `CCOc1nnc(CN(Cc2ccccc2)CC(O)c2ccco2)s1` (centres unmarked) | 3.422% | -3.269% |
| `Nc1ccnc(N2C[C@@H]3CC[C@H](C2)N(CC2CCC2)C3=O)n1` | -8.357% | -2.402% |
| `Cc1nnc(N2CCCC3(CN(Cc4nccn4C)CCO3)C2)o1` (centres unmarked) | -14.85% | -2.252% |
| `CC(C)c1nnc(NC(=O)NCc2ccc(CO)c(F)c2)s1` | 13.01% | -5.556% |
| `CC(C(=O)NCC(C)(C)c1ccc2c(c1)OCO2)n1ccnc1` (centres unmarked) | 8.817% | -3.936% |
| `Cc1nc2cc(=O)[nH]n2c(C)c1CC(=O)Nc1cnn(C)c1` | 4.653% | 1.575% |
| `Cn1ccc(CS(=O)(=O)Cc2ccccc2)cc1=O` | 9.807% | -1.652% |
| `CN(CCNC(=O)N1CCCC1)C(=O)OC(C)(C)C` | 3.486% | -1.72% |
| `N#Cc1ccccc1OCCN1CCCCC1Cn1cncn1` (centres unmarked) | 0.6241% | 3.365% |
| `Cc1nc(C)c2c(n1)CCN(Cc1ccsc1)CC2` | -1.222% | -4.503% |
| `Cc1ccc(CNC(=O)c2nc3c(o2)CN(C(=O)c2cccnc2)C3)o1` | 10.65% | 1.465% |
| `Cc1ccccc1C(=O)NCC(O)c1ccc(F)c(F)c1` (centres unmarked) | 1.261% | -0.602% |
| `Cn1cnc2c1CCN(CC(=O)N(Cc1ccsc1)C1CC1)C2` | 1.434% | 2.2% |
| `C[C@@H]1CN(c2nc3c(cc2C(N)=O)CCC3)CC[C@@]1(O)C1CCC1` | -4.724% | 5.139% |
| `Cc1cnc(C)c(Oc2ccc(Cl)c(CN3CCCC3)c2Cl)n1` | -15.92% | 1.201% |
| `CN(Cc1ccncc1)C(=O)CCNS(=O)(=O)c1cccnc1` | 8.099% | -1.81% |
| `O=C(NC[C@@H]1CCCN1)c1cc(COc2cccc(C(F)(F)F)c2)[nH]n1` | -3.251% | -1.517% |
| `O=C1NCC2(CCCN(C(=O)Nc3cccc(-c4cscn4)c3)CC2)O1` (centres unmarked) | 14.82% | 12.05% |
| `O=C(c1cnc2ccc(F)cc2c1NCc1ccco1)N1CCCCC1` | 5.507% | -3.541% |
| `CNC(=O)CCc1cccc(C2CCCN(c3cc(C)ncn3)C2)n1` (centres unmarked) | -14.72% | -3.394% |
| `CCOCCCn1c(NC(=O)c2cnn(C)c2)nc2ccccc21` | 4.788% | 3.118% |
| `Cc1nc(C2CCCCC2)sc1C(=O)O` | 0.5312% | -5.142% |
| `Cc1cc2c(=O)n3c(nc2s1)CCN(Cc1cnc(C(C)C)nc1)CC3` | -6.743% | -0.75% |
| `O=C1COc2ccc(C(=O)NS(=O)(=O)c3ccccc3Cl)cc2N1` | -1.724% | 0.5303% |
| `CCC[C@H]1CN(S(C)(=O)=O)C[C@@H]1NC(=O)Cc1ccc(F)cc1C` | -20.64% | -2.553% |
| `O=C(c1ccc[nH]1)N1CCn2cc(CN3CCCC3)nc2C1` | 3.707% | -7.401% |
| `CN(C)C(=O)C1OC2(CCN(C(=O)c3ccco3)CC2)c2ccccc21` (centres unmarked) | -0.9324% | 2.351% |
| `CC(C)c1noc(CN(C)C(=O)C2COc3ccccc3C2)n1` (centres unmarked) | -13.11% | 7.029% |

Once more, the final 6:

{"compound": "Cc1cc2c(=O)n3c(nc2s1)CCN(Cc1cnc(C(C)C)nc1)CC3", "A": -6.743, "B": -0.75}
{"compound": "O=C1COc2ccc(C(=O)NS(=O)(=O)c3ccccc3Cl)cc2N1", "A": -1.724, "B": 0.5303}
{"compound": "CCC[C@H]1CN(S(C)(=O)=O)C[C@@H]1NC(=O)Cc1ccc(F)cc1C", "A": -20.64, "B": -2.553}
{"compound": "O=C(c1ccc[nH]1)N1CCn2cc(CN3CCCC3)nc2C1", "A": 3.707, "B": -7.401}
{"compound": "CN(C)C(=O)C1OC2(CCN(C(=O)c3ccco3)CC2)c2ccccc21", "stereo": "centres unmarked", "A": -0.9324, "B": 2.351}
{"compound": "CC(C)c1noc(CN(C)C(=O)C2COc3ccccc3C2)n1", "stereo": "centres unmarked", "A": -13.11, "B": 7.029}